The name of at least one read-out is uncertain.
These compounds were tested on Eleusine indica (assay: Greenhouse trial: herbicidal efficacy, Eleusine indica). Settings: Table 4; post-emergence, 1-2-leaf stage, scoring 14 days after treatment; g of ai/ha: A1.1 100; B1.1 2.5 alone, 5 in combinations; C1 2.5; C2 1.25; C10 250; C4 50; C5 1; C6 2.
Format: in vivo
Procedure: The trials were carried out under greenhouse conditions (test pots, diameter 8 cm, spray application using 300 l of water/hectare, 2 repetitions, 6 to 8 plants per pot).
Application was by post-emergence treatment; the species of the harmful plants and their stage of growth at the time of treatment are indicated in the individual results tables. The application rates of the herbicidally active compounds used on their own or in combinations are likewise listed in the individual results tables.
Scoring was by visual comparison of the treated with the untreated control pots (0-100% scale, 14 d after the application).
4.2 Abbreviations used in Tables 4 to 8 application rate g/ai=application rate in grams of active compound per hectare • ai=active ingredient (of an active compound content of 100%) • GA=glufosinate-ammonium • GA-tolerant=corn which is tolerant to GA (GMO: LL corn) • E^C=expected value according to Colby, (E^C=A+B−A×B/100)= • =for ternary combinations: (A+B)+C−(A+B)×C/100 • Δ=difference (%) between observed value -%- vs. expected value (%) (observed value minus expected value) • examination: —observed values for (A), (B) and (A)+(B) in % • scoring: —observed value (%) greater>than E^C/E^A: ->synergism (+A) • —observed value (%) equal to =E^C/E^A->additive effect (+−Δ) • —observed value (%) smaller<than E^A/E^C->antagonism (−Δ)

Structure (SMILES) | Herbicidal efficacy % Eleusine indica [%]
C#CCN1C(=O)COc2cc(F)c(N3C(=O)C4=C(CCCC4)C3=O)cc21 [(C5) flumioxazin, flumioxazin] | 10
COc1nc(C)nc(NC(=O)NS(=O)(=O)c2cc(I)ccc2C(=O)O)n1 [(C2) iodosulfuron, iodosulfuron] | 5
CCS(=O)(=O)c1cccnc1S(=O)(=O)NC(=O)Nc1nc(OC)cc(OC)n1 [(C6) rimsulfuron, rimsulfuron] | 0
COC(=O)c1nc(-c2ccc(Cl)c(OC)c2F)cc(N)c1Cl [(B1.1), methyl 4-amino-3-chloro-6-(4-chloro-2-fluoro-3-methoxyphenyl)pyridine-2-carboxylate] | 10
COc1cc(OC)nc(NC(=O)NS(=O)(=O)c2cc(NC=O)ccc2C(=O)N(C)C)n1 [(C1) foramsulfuron, foramsulfuron] | 20
N#Cc1cc(Br)c(O)c(Br)c1 [(C4) bromoxynil, bromoxynil] | 0
CCNc1nc(Cl)nc(NC(C)C)n1 [(C10) atrazin, atrazine] | 20

Same assay, conditions: Table 8; post-emergence, 1-2-leaf stage, scoring 14 days after treatment; g of ai/ha: A1.1 100; B1.1 5; C8 0.5; isoxadifen 100; cyprosulfamide 100; C′ = isoxadifen in r19, cyprosulfamide in r23

Structure (SMILES) | Herbicidal efficacy % Eleusine indica [%]
COC(=O)c1nc(-c2ccc(Cl)c(OC)c2F)cc(N)c1Cl [(B1.1), methyl 4-amino-3-chloro-6-(4-chloro-2-fluoro-3-methoxyphenyl)pyridine-2-carboxylate] | 10

— patent US20110294663A1, “Herbicidal composition for tolerant or resistant corn crops” (priority 2010, published 2011)
